No constants are given. Whether binding was seen depends on the method and setting. For some assays here: Binding seen in cells or lysates may run through a third protein. Some binding calls cover weakened binding; strength is not graded here. Sequences can lack the tags named with a protein.

One assay addresses T1, nYFP-OsGRF4 (rice) (UniProt Q6ZIK5).
T1 sequence: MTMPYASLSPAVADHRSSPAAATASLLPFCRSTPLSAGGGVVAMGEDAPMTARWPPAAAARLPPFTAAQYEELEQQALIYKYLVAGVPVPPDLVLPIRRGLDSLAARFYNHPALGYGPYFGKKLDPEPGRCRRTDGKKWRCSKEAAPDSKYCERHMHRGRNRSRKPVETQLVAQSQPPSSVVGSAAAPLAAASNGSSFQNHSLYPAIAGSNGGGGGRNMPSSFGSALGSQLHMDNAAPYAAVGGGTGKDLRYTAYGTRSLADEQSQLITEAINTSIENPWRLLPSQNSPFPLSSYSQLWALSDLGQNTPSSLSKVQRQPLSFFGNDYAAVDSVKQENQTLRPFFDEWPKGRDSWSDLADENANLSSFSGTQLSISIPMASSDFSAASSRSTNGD
As to the kind of experiment: BiFC in tobacco leaf epidermal cells.

In a further assay the target is T2, HA-tagged OsGRF4 (rice) (UniProt Q6ZIK5).
T2 sequence: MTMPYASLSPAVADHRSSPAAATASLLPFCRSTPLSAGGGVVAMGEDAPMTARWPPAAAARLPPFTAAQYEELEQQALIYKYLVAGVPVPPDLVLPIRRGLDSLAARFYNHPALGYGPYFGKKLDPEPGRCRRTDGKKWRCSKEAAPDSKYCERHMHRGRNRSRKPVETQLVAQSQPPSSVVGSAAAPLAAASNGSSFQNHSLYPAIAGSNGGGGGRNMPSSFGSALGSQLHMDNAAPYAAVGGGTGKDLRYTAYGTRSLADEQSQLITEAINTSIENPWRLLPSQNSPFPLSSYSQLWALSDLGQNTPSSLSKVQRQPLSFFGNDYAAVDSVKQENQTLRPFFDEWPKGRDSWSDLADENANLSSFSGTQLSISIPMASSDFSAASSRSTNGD
Description: Co-IP from A. thaliana protoplasts, anti-DDDDK-tag beads, anti-Flag and anti-HA immunoblot. In general terms: A western blot detects proteins with antibodies after separation by electrophoresis.

B1: cYFP-SLR1 (protein, rice, UniProt Q7G7J6 1-625, looked up, not shown: large carriers)
chain: MKREYQEAGGSSGGGSSADMGSCKDKVMAGAAGEEEDVDELLAALGYKVRSSDMADVAQKLEQLEMAMGMGGVSAPGAADDGFVSHLATDTVHYNPSDLSSWVESMLSELNAPLPPIPPAPPAARHASTSSTVTGGGGSGFFELPAAADSSSSTYALRPISLPVVATADPSAADSARDTKRMRTGGGSTSSSSSSSSSLGGGASRGSVVEAAPPATQGAAAANAPAVPVVVVDTQEAGIRLVHALLACAEAVQQENFAAAEALVKQIPTLAASQGGAMRKVAAYFGEALARRVYRFRPADSTLLDAAFADLLHAHFYESCPYLKFAHFTANQAILEAFAGCHRVHVVDFGIKQGMQWPALLQALALRPGGPPSFRLTGVGPPQPDETDALQQVGWKLAQFAHTIRVDFQYRGLVAATLADLEPFMLQPEGEADANEEPEVIAVNSVFELHRLLAQPGALEKVLGTVHAVRPRIVTVVEQEANHNSGSFLDRFTESLHYYSTMFDSLEGGSSGQAELSPPAAGGGGGTDQVMSEVYLGRQICNVVACEGAERTERHETLGQWRNRLGRAGFEPVHLGSNAYKQASTLLALFAGGDGYRVEEKEGCLTLGWHTRPLIATSAWRVAAA
Regarding B1, the binding result with nYFP-OsGRF4 (rice) is given as “binds”.

B2: Flag-tagged SLR1 (protein, rice, UniProt Q7G7J6 1-625, looked up, not shown: small tags and cut ends)
chain: MKREYQEAGGSSGGGSSADMGSCKDKVMAGAAGEEEDVDELLAALGYKVRSSDMADVAQKLEQLEMAMGMGGVSAPGAADDGFVSHLATDTVHYNPSDLSSWVESMLSELNAPLPPIPPAPPAARHASTSSTVTGGGGSGFFELPAAADSSSSTYALRPISLPVVATADPSAADSARDTKRMRTGGGSTSSSSSSSSSLGGGASRGSVVEAAPPATQGAAAANAPAVPVVVVDTQEAGIRLVHALLACAEAVQQENFAAAEALVKQIPTLAASQGGAMRKVAAYFGEALARRVYRFRPADSTLLDAAFADLLHAHFYESCPYLKFAHFTANQAILEAFAGCHRVHVVDFGIKQGMQWPALLQALALRPGGPPSFRLTGVGPPQPDETDALQQVGWKLAQFAHTIRVDFQYRGLVAATLADLEPFMLQPEGEADANEEPEVIAVNSVFELHRLLAQPGALEKVLGTVHAVRPRIVTVVEQEANHNSGSFLDRFTESLHYYSTMFDSLEGGSSGQAELSPPAAGGGGGTDQVMSEVYLGRQICNVVACEGAERTERHETLGQWRNRLGRAGFEPVHLGSNAYKQASTLLALFAGGDGYRVEEKEGCLTLGWHTRPLIATSAWRVAAA
Take B2: the binding result in the assay with HA-tagged OsGRF4 (rice) is “binds”.

(Values after patent US20210071191A1.)
